# The other results are listed elsewhere or left out.
# B1: truncCC1G-10077 (Coprinopsis cinerea) (protein)
# chain: MHHHHHHHHPLPSPGPGWVLIQNGGTGKFLCSTPSGDIGTADGPETVYDYSVQWRFIQREYTGVYHVVNRATGAYLRQIGTSMPSIGLAEENDDELKDWWMLETYDNSEIGLASIISRWTGNVLDHYGGVSVQALDNNTENSYRSWAIIPARDWLTSFSLVNGQGGLCLAAQYAREETRLSTTANVNDFHAQWVFRKPSGSSGYTIQNKYNNHYVGGTSARWELVVCCNKYFGIRNTSTQKYLAIEDGQVTFQDQDMTDRKQCWELCSGRATDTSGNDYDLIYMDDDLLEVMIPWVGDKQGDLKHYIEKRATKKPPKDKGGWQLPAAGLIKKPKFNDIRQLLQELIEQWEWDVVNEEREQIQTLVSIDEAEARRLLGRRPHPDIVAAYQRSRSSTLFRIDRQGYFNIAGDRYVNIQGQYGDDSYFHIALPVGVRFGREQIRRFLRDSLDRSTSVTITPTTCKPPSGGPDYNRDPDSDGDNSWIKWTIAVVGTSAIKHSEL
# Legend:
# Test in all cases: glycan array binding signal (z-score within array); higher = stronger binding
# Conditions in all cases: glycan notation: IUPAC condensed, linker removed
# [1] = target: Gal(b1-4)GlcNAc(b1-2)Man(a1-3)[Gal(b1-4)GlcNAc(b1-2)Man(a1-6)]Man(b1-4)GlcNAc(b1-4)[Fuc(a1-6)]GlcNAc
# In short: (§1)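 Glycan array data were curated from 3228 arrays in the Consortium for Functional Glycomics database and kept only where the protein sequence was available. Glycan names were converted to IUPAC-condensed notation, and columns mapping to the same glycan were averaged. The binding signal is a within-array Z-score, averaged across arrays of the same protein sequence at different concentrations or buffers and across linkers. Negative Z-scores can be read as non-binding.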
# [2] = target: Gal(b1-4)GlcNAc(b1-2)Man(a1-3)[Gal(b1-4)GlcNAc(b1-2)Man(a1-6)][Gal(b1-4)GlcNAc(b1-4)]Man(b1-4)GlcNAc(b1-4)[Fuc(a1-6)]GlcNAc
# In short: as §1
# [3] = target: Gal(b1-4)GlcNAc(b1-2)Man(a1-3)[Gal(b1-4)GlcNAc(b1-2)Man(a1-6)][GlcNAc(b1-4)]Man(b1-4)GlcNAc(b1-4)[Fuc(a1-6)]GlcNAc
# In short: as §1
# [4] = target: Gal(b1-4)GlcNAc(b1-2)Man(a1-3)[GlcNAc(b1-2)Man(a1-6)]Man(b1-4)GlcNAc(b1-4)GlcNAc
# In short: as §1
# [5] = target: Gal(b1-4)GlcNAc(b1-2)Man(a1-3)[GlcNAc(b1-4)][Gal(b1-4)GlcNAc(b1-2)Man(a1-6)]Man(b1-4)GlcNAc(b1-4)GlcNAc
# In short: as §1
# [6] = target: Gal(b1-4)GlcNAc(b1-2)Man(a1-3)[Man(a1-6)]Man(b1-4)GlcNAc(b1-4)GlcNAc
# In short: as §1
# [7] = target: Gal(b1-4)GlcNAc(b1-2)Man(a1-6)Man(b1-4)GlcNAc(b1-4)GlcNAc
# In short: as §1
# [8] = target: Gal(b1-4)GlcNAc(b1-2)Man(a1-6)[GlcNAc(b1-2)Man(a1-3)]Man(b1-4)GlcNAc(b1-4)GlcNAc
# In short: as §1
# [9] = target: Gal(b1-4)GlcNAc(b1-2)Man(a1-6)[Man(a1-3)]Man(b1-4)GlcNAc(b1-4)GlcNAc
# In short: as §1
# [10] = target: Gal(b1-4)GlcNAc(b1-2)[Gal(b1-4)GlcNAc(b1-4)]Man(a1-3)[Gal(b1-4)GlcNAc(b1-2)Man(a1-6)]Man(b1-4)GlcNAc(b1-4)GlcNAc
# In short: as §1
# [11] = target: Gal(b1-4)GlcNAc(b1-2)[Gal(b1-4)GlcNAc(b1-4)]Man(a1-3)[Gal(b1-4)GlcNAc(b1-2)[Gal(b1-4)GlcNAc(b1-6)]Man(a1-6)]Man(b1-4)GlcNAc(b1-4)GlcNAc
# In short: as §1
# [12] = target: Gal(b1-4)GlcNAc(b1-2)[Gal(b1-4)GlcNAc(b1-4)]Man(a1-3)[GlcNAc(b1-4)][Gal(b1-4)GlcNAc(b1-2)Man(a1-6)]Man(b1-4)GlcNAc(b1-4)GlcNAc
# In short: as §1
# [13] = target: Gal(b1-4)GlcNAc(b1-2)[Gal(b1-4)GlcNAc(b1-4)]Man(a1-3)[GlcNAc(b1-4)][Gal(b1-4)GlcNAc(b1-2)[Gal(b1-4)GlcNAc(b1-6)]Man(a1-6)]Man(b1-4)GlcNAc(b1-4)GlcNAc
# In short: as §1
# [14] = target: Gal(b1-4)GlcNAc(b1-2)[Gal(b1-4)GlcNAc(b1-6)]Man(a1-6)[Gal(b1-4)GlcNAc(b1-2)Man(a1-3)]Man(b1-4)GlcNAc(b1-4)GlcNAc
# In short: as §1
# [15] = target: Gal(b1-4)GlcNAc(b1-2)[Gal(b1-4)GlcNAc(b1-6)]Man(a1-6)[Gal(b1-4)GlcNAc(b1-2)Man(a1-3)]Man(b1-4)GlcNAc(b1-4)[Fuc(a1-6)]GlcNAc
# In short: as §1
# [16] = target: Gal(b1-4)GlcNAc(b1-2)[Gal(b1-4)GlcNAc(b1-6)]Man(a1-6)[GlcNAc(b1-4)][Gal(b1-4)GlcNAc(b1-2)Man(a1-3)]Man(b1-4)GlcNAc(b1-4)GlcNAc
# In short: as §1
# [17] = target: Gal(b1-4)GlcNAc(b1-2)[Gal(b1-4)GlcNAc(b1-6)]Man(a1-6)[GlcNAc(b1-4)][Gal(b1-4)GlcNAc(b1-2)[Gal(b1-4)GlcNAc(b1-4)]Man(a1-3)]Man(b1-4)GlcNAc(b1-4)[Fuc(a1-6)]GlcNAc
# In short: as §1
# [18] = target: Gal(b1-4)GlcNAc(b1-3)Gal(b1-3)GalNAc
# In short: as §1
# [19] = target: Gal(b1-4)GlcNAc(b1-3)Gal(b1-3)GlcNAc
# In short: as §1
binder,measurement,setting,value
B1,glycan array binding signal (z-score),[1],3.13
same,glycan array binding signal (z-score),[2],-0.339
same,glycan array binding signal (z-score),[3],-1.45
same,glycan array binding signal (z-score),[4],-0.816
same,glycan array binding signal (z-score),[5],0.359
same,glycan array binding signal (z-score),[6],0.95
same,glycan array binding signal (z-score),[7],-0.278
same,glycan array binding signal (z-score),[8],-0.574
same,glycan array binding signal (z-score),[9],-0.862
same,glycan array binding signal (z-score),[10],-0.431
same,glycan array binding signal (z-score),[11],-1.06
same,glycan array binding signal (z-score),[12],-0.399
same,glycan array binding signal (z-score),[13],-0.348
same,glycan array binding signal (z-score),[14],-0.476
same,glycan array binding signal (z-score),[15],0.857
same,glycan array binding signal (z-score),[16],-0.119
same,glycan array binding signal (z-score),[17],-0.091
same,glycan array binding signal (z-score),[18],-0.625
same,glycan array binding signal (z-score),[19],-1.23

# Some of the entries above, reformatted:
binder	measurement	setting	value
B1	glycan array binding signal (z-score)	[11]	-1.06
same	glycan array binding signal (z-score)	[12]	-0.399
